Experimental data reported in patent US6399065 (SCHERING, dated 2002).
No constants are given. Whether binding was seen depends on the method and setting. Some entries that bind do so weakly or less than the wild type. Where a sequence is shown, tags or fusion partners need not be part of it.

What was measured:
[1] = biological target: SLAM-Ig (SLAM-immunoglobulin fusion protein: entire extracellular domain of human SLAM fused to the Fc portion of human IgG1 heavy chain) (human) (UniProt Q13291); experiment: native gel electrophoresis
[2] = biological target: T1, human SLAM (SLAM1, encoded by pSURslam1), cell surface (human) (UniProt Q13291); experiment: flow cytometry on SLAM expressing L cells
T1 sequence: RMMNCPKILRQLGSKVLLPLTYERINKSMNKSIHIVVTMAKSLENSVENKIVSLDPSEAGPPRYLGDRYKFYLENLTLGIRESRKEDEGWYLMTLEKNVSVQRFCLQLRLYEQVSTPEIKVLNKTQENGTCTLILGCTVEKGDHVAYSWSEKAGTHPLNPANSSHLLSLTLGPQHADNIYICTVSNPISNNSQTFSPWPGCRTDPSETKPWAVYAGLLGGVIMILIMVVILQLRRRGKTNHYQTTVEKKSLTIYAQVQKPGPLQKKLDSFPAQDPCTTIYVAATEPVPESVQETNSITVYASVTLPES

[3] = biological target: T1, human SLAM (SLAM1, encoded by pSURslam1), cell surface (human); experiment: flow cytometry on SLAM transfected L cells
[4] = biological target: SLAM-Ig (SLAM-immunoglobulin fusion protein: entire extracellular domain of human SLAM fused to the Fc portion of human IgG1 heavy chain) (human) (UniProt Q13291); experiment: native gel electrophoresis of purified SLAM-Ig
[5] = biological target: T1, human SLAM (SLAM1, encoded by pSURslam1), cell surface (human); experiment: flow cytometry with fluorescein conjugated SLAM-Ig
[6] = biological target: SLAM-Ig (SLAM-immunoglobulin fusion protein: entire extracellular domain of human SLAM fused to the Fc portion of human IgG1 heavy chain) (human) (UniProt Q13291); experiment: native gel electrophoresis (2-25% gradient) and gel filtration
[7] = biological target: T1, human SLAM (SLAM1, encoded by pSURslam1), cell surface (human); experiment: flow cytometry with fluorescein conjugated SLAM-Ig on various cell types

Measured: binding

B1: SLAM-Ig (SLAM-immunoglobulin fusion protein: entire extracellular domain of human SLAM fused to the Fc portion of human IgG1 heavy chain) (Fc fusion)
chain: ASYGTGGRMMNCPKILRQLGSKVLLPLTYERINKSMNKSIHIVVTMAKSLENSVENKIVSLDPSEAGPPRYLGDRYKFYLENLTLGIRESRKEDEGWYLMTLEKNVSVQRFCLQLRLYEQVSTPEIKVLNKTQENGTCTLILGCTVEKGDHVAYSWSEKAGTHPLNPANSSHLLSLTLGPQHADNIYICTVSNPISNNSQTFSPWPGCRTDPSETKP
notes: Fluorescein conjugated for flow cytometry; also called recombinant SLAM-Ig; soluble form of SLAM (SLAM-Ig); not shown: Fc portion of the human IgG1 heavy chain
binds: all assays above
